Reference: PubChem BioAssay AID1259354 (Paczesny and Yang Labs, IUPUI and University of Michigan, 2018)
Values joined by “and” are separate entries in the source; they are usually repeats but may differ in a detail not shown here. Identical values can stand only once. The whole screen tested about 78,000 compounds, of which about 1,800 (2.3%) were called active. Inconclusive means that the source gave no clear call. Such entries were picked first, then a sample of the others. No stated cut-off is given here; in the data, active means inhibition above about 30%; inconclusive means mostly about 10% to 28%; inactive means weaker than that.

By UniProt entry, the sequences of proteins in these tests, tags left out. Where a name states a change or a piece, a line headed by the entry shows the natural chain unless it says otherwise.
UniProt Q01638: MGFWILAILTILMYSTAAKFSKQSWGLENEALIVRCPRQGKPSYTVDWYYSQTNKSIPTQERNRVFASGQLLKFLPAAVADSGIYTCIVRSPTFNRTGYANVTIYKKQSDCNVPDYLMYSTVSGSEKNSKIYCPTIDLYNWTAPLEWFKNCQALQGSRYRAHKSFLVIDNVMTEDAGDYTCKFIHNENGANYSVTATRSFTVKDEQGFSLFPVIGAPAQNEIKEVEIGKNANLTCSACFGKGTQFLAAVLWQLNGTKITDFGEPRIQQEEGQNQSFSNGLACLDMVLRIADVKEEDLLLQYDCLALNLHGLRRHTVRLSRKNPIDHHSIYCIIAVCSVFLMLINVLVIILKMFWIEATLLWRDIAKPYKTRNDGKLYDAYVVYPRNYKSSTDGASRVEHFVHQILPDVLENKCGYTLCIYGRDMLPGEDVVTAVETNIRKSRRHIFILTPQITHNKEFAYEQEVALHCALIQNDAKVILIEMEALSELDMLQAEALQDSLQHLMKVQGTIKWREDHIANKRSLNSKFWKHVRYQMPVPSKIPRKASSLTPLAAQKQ

Target: Interleukin-1 receptor-like 1 (Homo sapiens) (UniProt Q01638)
Assay: blocks human ST2 binding to IL-33, primary screen, biochemical, AlphaLISA (AID 1259354)
Details: AlphaLISA ST2-Fc/biotin-IL-33 interaction, 1 h; at 17 µM, active compounds read high

Compound	inhibition
O=C1C(=O)N(CCN2CCOCC2)C(c2cccs2)C1=C(O)c1ccc(Cl)cc1 (centres undefined)	inactive
CN(C)C1CCCN(C(=O)c2ccc(Cl)cc2O)CC1 (centres undefined)	inconclusive: 11%
CN(C)C(=O)c1cncc(N2CC[C@@H](c3ccc4ccccc4c3)[C@H](O)C2)n1	inconclusive: 15%
CC(C)C(=O)Nc1cc(-n2cnnc2)ccc1F	inconclusive: 14%
O=c1c2cnn(-c3ccc(Cl)cc3)c2ncn1Cc1c(F)cccc1Cl	inconclusive: 10%
COc1ccc(/C=C/C#N)cc1	inactive
Cc1cc(N(C)C)nc(Nc2ccc(NC(=O)c3c(F)cccc3Cl)cc2)n1	inconclusive: 12%
CC(C)Cn1cc(C(=O)NCCN(C)Cc2ccccc2)c2c3ccccc3n(C)c2c1=O	inactive
Cc1ccc(NC(=O)N2Cc3[nH]cnc3C[C@H]2c2nc(-c3cccc(C)c3)no2)cc1	inactive
Cc1cccc(N(C)S(=O)(=O)c2cccc3nonc23)c1	inconclusive: 16%
COc1ccccc1CCN1CCC(CN(C)C(=O)C2=NNC(=O)CC2)CC1	inconclusive: 11%
COc1cc(C)ccc1S(=O)(=O)N1CCc2nc(C)n(C)c(=O)c2CC1	inactive
Cc1cccc(C2CC(c3ccccc3Cl)Nc3ncnn32)c1 (centres undefined)	inconclusive: 10%
CN1CCC2(CCCN(C(=O)c3cccc(N)c3)C2)C1 (centres undefined)	inconclusive: 11%
CC(=O)C1=C(C)Nc2sc(C(=O)c3ccc(F)cc3)c(N)c2C1c1ccc(Cl)cc1 (centres undefined)	inconclusive: 15%
COc1ccc(C(=O)N2CCC(C(=O)Nc3ccc4c(c3)OCO4)CC2)cc1	inconclusive: 10%
CCCSc1nc2c(c(=O)n1-c1ccccc1)SCC2	inconclusive: 14% and inconclusive: 12%
COCCN1C(=O)N(Cc2cccc3ccccc23)C(=O)C12CCN(C1Cc3ccccc3C1)CC2	inconclusive: 10%
CN(C)CC#CC(O)C1CC=CCC1 (centres undefined)	inconclusive: 13%
Cc1cccc(C(=O)Nc2nc3ccc4sc(C)nc4c3s2)c1	inconclusive: 28%

Compound	inhibition
O=C1C(=C(O)c2ccccc2)NS(=O)(=O)c2ccccc21	inactive
CCc1cnc(C)nc1NCCNc1nc(C)cc(=O)[nH]1	inconclusive: 15%
C=CCNC(=O)C[C@@H]1CCN(C(=O)Nc2cccc(C(=O)OCC)c2)C[C@@H]1CC	inconclusive: 16%
Cc1[nH]cnc1-c1nccn1-c1ccc(-c2nc3ccccc3[nH]2)cc1	inconclusive: 13%
O=C1NCC2(CCCN(C(=O)CCc3cn4ccccc4n3)CC2)O1 (centres undefined)	inconclusive: 15%
CC(C)C(NC(=O)c1ccccn1)c1nnc2n1CCN(C(=O)/C=C/c1cccs1)CC2 (centres undefined)	inconclusive: 10%
O=C1C(=C(O)c2ccccc2)C(=O)c2ccccc21	inconclusive: 24%
O=C(O)CSCCc1ccncc1	inactive
O=C(CN1C(=O)/C(=C\c2ccc(Cl)cc2)Sc2ccccc21)N1CCCCC1	active: 41%
O=C(NC1CCCCC1)c1ccc(CS(=O)(=O)c2ccc(Br)cc2)o1	inactive
O=C1C2=C(Nc3ccccc3SC2c2ccco2)c2ccccc21 (centres undefined)	inconclusive: 21%
Cc1noc(C)c1CNC1CCN(C(=O)c2cccs2)CC1	inconclusive: 15%
Cc1noc(C)c1C(=O)NCC[C@@H]1C[C@@H]2C=C[C@H]1C2	inconclusive: 20%
Cc1c(C(=O)NCc2ccc3ccccc3n2)oc2c(F)cccc12	inactive
O=C(CCc1nc2ccccc2[nH]1)N1CCCC2(CCNCC2)CC1	inactive
COc1ccc(N(C(=O)c2c(F)cccc2Cl)C2C=CS(=O)(=O)C2)c(OC)c1 (centres undefined)	inconclusive: 13%
COc1ccc(Cl)cc1NC(=O)CCC1CCCN(Cc2ccc(C)s2)C1 (centres undefined)	inconclusive: 23%
CC(=O)Nc1ccc(C(=O)Nc2ccc(Cl)c(Cl)c2)cc1	inactive
O=C(Cc1ccc(F)cc1)NCCc1ccc(F)cc1	inconclusive: 14%
Cn1cc(CN(C(=O)C(O)c2ccc(C(F)(F)F)cc2)C2CC2)cn1 (centres undefined)	inconclusive: 11%

Compound	inhibition
CC(=O)N1N=C(c2ccc(C)cc2)CC1c1ccc(C)cc1 (centres undefined)	inconclusive: 18%
CC(O)(CC(=O)O)CC(=O)OC1[C@H](OC(=O)/C=C/c2ccc(O)c(O)c2)CC(O)(C(=O)O)C[C@H]1OC(=O)/C=C/c1ccc(O)c(O)c1 (some centres undefined)	inactive
CN1C(=O)C2(CCN(c3ncc(F)cn3)CC2)c2ccccc21	inactive
C[C@H]1[C@@H]2[C@@H](O)C([C@H](C)C(=O)NCc3ccccn3)CC[C@@]2(C)CC[C@@H]1NC(=O)c1ccc(C#N)cc1 (some centres undefined)	inconclusive: 17%
CC1(C)CC(CCC(=O)Nc2ccccc2Cl)C(=O)O1 (centres undefined)	inconclusive: 13%
c1ccc(Nc2c(-c3ccccn3)nc3ccccn23)cc1	inconclusive: 22%
CCCc1[nH]nc2c1C(c1ccc(OC)c(OCC)c1)C(C#N)=C(N)O2 (centres undefined)	inactive
CC(C)C1NC(=O)CNC(=O)C2CCCN2C(=O)C(Cc2c[nH]c3ccccc23)NC(=O)CNC(=O)C(C(O)c2ccc(O)cc2)NC(=O)CNC1=O (centres undefined)	inactive
O=C(O)C[C@@H]1CCN(C(=O)C2CCCCC2)C[C@@H]1CCN1CCN(c2ccccc2)CC1	inconclusive: 15%
Cn1nc(C2CCN(C(=O)c3cnon3)CC2)n(-c2ccccc2)c1=O	inconclusive: 19%
C=CCn1c(CCCNC(=O)c2ccc(F)cc2)nc2ccccc21	inactive
COc1cccc(C2CC(c3ccc(F)cc3)n3ncnc3N2)c1 (centres undefined)	inactive
O=C(NCc1cnc(-c2ccccc2)s1)c1ccc([N+](=O)[O-])cc1	inconclusive: 28%
Cn1ncc2c(=O)[nH]c(CN3CCOC(CCCc4ccccc4)C3)nc21 (centres undefined)	inactive
Cc1ccccc1C(=O)Nc1sc2c(c1C(N)=O)CCCCC2	inactive
COc1ccc(Br)cc1C=Nc1c(-c2ccco2)nc2ccccn12	active: 30%
CCCCNC(=O)Cc1ccc(Br)cc1	inconclusive: 10%
O=C(O)c1cccc(C(=O)N2C[C@@H]3C[C@H](C2)c2ccc(NC(=O)C4CCCCC4)c(=O)n2C3)c1	inconclusive: 10%
O=C(O)C1CC(=O)N(Cc2nc(-c3ccccc3)n[nH]2)C1 (centres undefined)	inactive
